Measured data: PubChem BioAssay AID652272 (Drosophila RNAi Screening Center, 2013)

Aim: 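Finding fly genes that regulate Hedgehog signal transduction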 (primary screen)
Cell system: Drosophila clone 8 (Cl8) cells
Reagent: long dsRNA against Drosophila genes
Measured: 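Firefly light from a Hedgehog-responsive ptc promoter reporter and Renilla reference light, both read on a plate reader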
Reading the numbers: firefly Hh reporter signal: higher = more ptc reporter light; Renilla reference signal: higher = more Renilla control light
Hit rule: 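Hit when the z-score averaged over two replicates is under -2 or over +3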
Meaning of the calls: active = hit: reporter lowered or raised; inactive = not a hit
The deposit covers about 21,000 reagents; below is a random part of those that have a named target and a result. In the full data, 503 (2.4%) are marked active. 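Raw plate light values, not normalised; calls rest on replicate z-scores that were not deposited; hits include reporter decreases as well as increases.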 A plus sign joins genes that one reagent is predicted to hit. Not given: the amount of reagent, the time to read-out.

Knock-down of Leash [SID104195409] gave: firefly Hh reporter signal, replicate 1 = 61138; firefly Hh reporter signal, replicate 2 = 1.10e5; Renilla reference signal, replicate 1 = 1712; Renilla reference signal, replicate 2 = 2880; inactive. For CG13501 [SID104183938], the values are firefly Hh reporter signal, replicate 1 = 74592; firefly Hh reporter signal, replicate 2 = 83795; Renilla reference signal, replicate 1 = 2065; Renilla reference signal, replicate 2 = 6025; inactive. Knock-down of lark [SID104191154] resulted in: firefly Hh reporter signal, replicate 1 = 99681; firefly Hh reporter signal, replicate 2 = 52532; Renilla reference signal, replicate 1 = 4203; Renilla reference signal, replicate 2 = 2396; inactive. Knock-down of NimC1 (Nimrod C1) [SID104181671] came out at: firefly Hh reporter signal, replicate 1 = 1.03e5; firefly Hh reporter signal, replicate 2 = 41962; Renilla reference signal, replicate 1 = 2688; Renilla reference signal, replicate 2 = 3968; inactive. Knock-down of Itgbn (Integrin betanu subunit) [SID104183285] came out at: firefly Hh reporter signal, replicate 1 = 1.15e5; firefly Hh reporter signal, replicate 2 = 51644; Renilla reference signal, replicate 1 = 3315; Renilla reference signal, replicate 2 = 4342; inactive. For CG6294 + CG6299 + CG15642 [SID104199773] the deposit lists firefly Hh reporter signal, replicate 1 = 84648; firefly Hh reporter signal, replicate 2 = 2.34e5; Renilla reference signal, replicate 1 = 2631; Renilla reference signal, replicate 2 = 9766; inactive.

Silencing of PolQ (DNA polymerase theta) [SID104196798] resulted in: firefly Hh reporter signal, replicate 1 = 1.18e5; firefly Hh reporter signal, replicate 2 = 1.20e5; Renilla reference signal, replicate 1 = 3984; Renilla reference signal, replicate 2 = 2695; inactive. After knock-down of CG34241 [SID104188949], the screen gave firefly Hh reporter signal, replicate 1 = 1.89e5; firefly Hh reporter signal, replicate 2 = 3.03e5; Renilla reference signal, replicate 1 = 4880; Renilla reference signal, replicate 2 = 11364; inactive. CAH2 (Carbonic anhydrase 2) [SID104190538] scored firefly Hh reporter signal, replicate 1 = 39344; firefly Hh reporter signal, replicate 2 = 40954; firefly Hh reporter signal, replicate 3 = 52498; Renilla reference signal, replicate 1 = 3970; Renilla reference signal, replicate 2 = 3738; inactive. CG31213 [SID104194104] showed firefly Hh reporter signal, replicate 1 = 5.73e5; firefly Hh reporter signal, replicate 2 = 72360; Renilla reference signal, replicate 1 = 29826; Renilla reference signal, replicate 2 = 2051; inactive. With knock-down of CG31213 [SID104195439], the record shows firefly Hh reporter signal, replicate 1 = 5.77e5; firefly Hh reporter signal, replicate 2 = 1.02e5; Renilla reference signal, replicate 1 = 29020; Renilla reference signal, replicate 2 = 2451; inactive. Knock-down of CG14212 [SID104199360] resulted in: firefly Hh reporter signal, replicate 1 = 81280; firefly Hh reporter signal, replicate 2 = 2.19e5; Renilla reference signal, replicate 1 = 1795; Renilla reference signal, replicate 2 = 9516; inactive.

Silencing of ppk5 (pickpocket 5) [SID104191284] resulted in: firefly Hh reporter signal, replicate 1 = 3.42e5; Renilla reference signal, replicate 1 = 7280; inactive. With knock-down of Nos (Nitric oxide synthase) [SID104183173], the screen gave firefly Hh reporter signal, replicate 1 = 84969; firefly Hh reporter signal, replicate 2 = 86136; Renilla reference signal, replicate 1 = 3613; Renilla reference signal, replicate 2 = 3664; inactive.

Part of the list above, set out differently:
CG31213 [SID104194104]
- firefly Hh reporter signal, replicate 1: 5.73e5
- firefly Hh reporter signal, replicate 2: 72360
- Renilla reference signal, replicate 1: 29826
- Renilla reference signal, replicate 2: 2051
- Outcome: inactive

CG31213 [SID104195439]
- firefly Hh reporter signal, replicate 1: 5.77e5
- firefly Hh reporter signal, replicate 2: 1.02e5
- Renilla reference signal, replicate 1: 29020
- Renilla reference signal, replicate 2: 2451
- Outcome: inactive

CG14212 [SID104199360]
- firefly Hh reporter signal, replicate 1: 81280
- firefly Hh reporter signal, replicate 2: 2.19e5
- Renilla reference signal, replicate 1: 1795
- Renilla reference signal, replicate 2: 9516
- Outcome: inactive

ppk5 (pickpocket 5) [SID104191284]
- firefly Hh reporter signal, replicate 1: 3.42e5
- Renilla reference signal, replicate 1: 7280
- Outcome: inactive

Continued.
With knock-down of CG17266 [SID104184771], the screen gave firefly Hh reporter signal, replicate 1 = 1.50e5; firefly Hh reporter signal, replicate 2 = 66058; Renilla reference signal, replicate 1 = 3480; Renilla reference signal, replicate 2 = 5609; inactive. Knock-down of CG18549 [SID104195139] came out at: firefly Hh reporter signal, replicate 1 = 64456; firefly Hh reporter signal, replicate 2 = 1.19e5; Renilla reference signal, replicate 1 = 2813; Renilla reference signal, replicate 2 = 3508; inactive. After knock-down of CG5033 [SID104187202] the results were firefly Hh reporter signal, replicate 1 = 94042; firefly Hh reporter signal, replicate 2 = 56960; Renilla reference signal, replicate 1 = 5067; Renilla reference signal, replicate 2 = 3296; inactive. Against CG13653 [SID104194445], the entry reads firefly Hh reporter signal, replicate 1 = 4.59e5; firefly Hh reporter signal, replicate 2 = 94241; Renilla reference signal, replicate 1 = 25897; Renilla reference signal, replicate 2 = 7540; inactive. With knock-down of js (jiangshi) [SID104194796] the results were firefly Hh reporter signal, replicate 1 = 84691; firefly Hh reporter signal, replicate 2 = 96432; Renilla reference signal, replicate 1 = 1900; Renilla reference signal, replicate 2 = 2208; inactive. After knock-down of CG12869 [SID104186000], the record shows firefly Hh reporter signal, replicate 1 = 71376; firefly Hh reporter signal, replicate 2 = 42889; Renilla reference signal, replicate 1 = 1824; Renilla reference signal, replicate 2 = 3234; inactive.

Against cas (castor) [SID104192165], the entry reads firefly Hh reporter signal, replicate 1 = 75659; firefly Hh reporter signal, replicate 2 = 96369; Renilla reference signal, replicate 1 = 3216; Renilla reference signal, replicate 2 = 3208; inactive.
